Source: PubChem BioAssay AID504834 (National Center for Advancing Translational Sciences (NCATS), 2011)
Among all 320,000 compounds or so, about 22,000 (6.9%) were called active. The inconclusive results got no clear call from the source; some entries with a clear call stand among them for comparison. Calls follow the shape of the dose curve; as a rule, active = well fitted inhibition curve with a large enough effect; inconclusive = small, poorly fitted or top-dose-only effect, or another doubt; inactive = no such curve, though single readings can be large or run the other way. Where the call is inconclusive, the potency comes from a doubtful curve fit.

experiment: Primary qHTS for delayed death inhibitors of the malarial parasite plastid, 96 hour incubation; details: P. falciparum luciferase reporter growth; series mostly up to 28.7 µM; activity change, negative = inhibition: at the top concentration
Summary of the method: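 Plates of compound plus infected erythrocytes (2% hematocrit, 0.05% parasitemia final) incubate 96 hours, 37 C, 5% CO2. Detection reagent added; reduced luminescence from the parasites' luciferase reporter flags inhibition.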
% is scaled to controls: 0 for no effect and ±100 for the full control effect; potency is read from the fitted curve at half-maximal effect.

| Compound | Potency | activity change, negative = inhibition |
| --- | --- | --- |
| COC(=O)c1cc(NC(=O)CSc2ncn[nH]2)ccc1Cl | inconclusive: 14.7 µM [inhibitor, partial curve, poor fit] |  |
| Cc1cc(OCC(=O)N[C@@H](CSCc2ccccc2)C(=O)O)c2c(C)c(C)c(=O)oc2c1 | active: 10.4 µM |  |
| COc1ccc2c(C)nc(Nc3nc(C)cc(C)n3)nc2c1 | active: 4.65 µM |  |
| COc1cccc(CN2CCNC(=O)C2CC(=O)NC2CCCCCCC2)c1 (stereo unspecified) | inconclusive: 13.1 µM [inhibitor, single point] |  |
| CCN1CCN(Cc2ccc(NC(=O)c3cc(NC(=O)c4cncc(-c5cccs5)c4)cc(OC)c3)cc2C(F)(F)F)CC1 | inconclusive: 0.0522 µM [inhibitor, full curve, poor fit] |  |
| CC(=O)c1cccc(NC(=O)C(=O)Nc2cccc3ccccc23)c1 | inconclusive: 10.4 µM [inhibitor, single point] |  |
| CC1=C(C(=O)Nc2ccc(F)cc2)C(c2cccc(C)c2)n2nc(CCCO)nc2N1 (stereo unspecified) | active: 6.57 µM |  |
| COc1ccc(C(=O)NCCS(=O)(=O)N(C)C2CCCCC2)cc1 | inconclusive: 0.465 µM [inhibitor, full curve, poor fit] |  |
| COc1cccc(NC(=O)COc2ccc3c(c2)CCC3)c1 |  | inactive: 0% |
| O=C(CN1CCN(S(=O)(=O)c2ccc(F)cc2)CC1)c1ccc(O)c(O)c1 |  | inactive: 0% |
| COc1cccc2[nH]c3c(N4CC(C)CC(C)C4)ncnc3c12 (stereo unspecified) | inconclusive: 0.828 µM [inhibitor, full curve, poor fit] |  |
| O=S1(=O)CC2N=C(N(Cc3ccc(F)cc3Cl)c3ccccc3F)SC2C1 (stereo unspecified) | inconclusive: 0.828 µM [inhibitor, full curve, poor fit] |  |
| CCNC(=S)NNC(=O)c1cc(-c2cccnc2)nc2ccccc12 |  | inactive: 21.4% |
| CCOCCCn1c(=NC(=O)c2ccco2)c(C(=O)OCC)cc2c(=O)n3cccc(C)c3nc21 | inconclusive: 3.7 µM [inhibitor, partial curve, poor fit] |  |
| COc1ccccc1CN1CCCC(CNC(=O)c2cccc3ccccc23)C1 (stereo unspecified) | inconclusive: 18.5 µM [inhibitor, single point] |  |
| CCCCN(Cc1cc2cc(OC)ccc2[nH]c1=O)S(=O)(=O)c1ccc(C)cc1 |  | inactive: 7.41% |
| O=C(O)CCc1nn2cc(-c3ccccc3)nc2[nH]c1=O | inconclusive: 8.28 µM [inhibitor, partial curve, poor fit] |  |
| Cc1ccc(-n2cc3c(=O)n(C)c(=O)n(C)c3c2)cc1C |  | inactive: 3.39% [at 5.75 µM] |
| O=C(c1cc(C2CC2)on1)N1CCN(C(c2ccccc2)c2ccccc2)CC1 |  | inactive: -9.74% |
| Cc1ccc(NC(=O)CNC(=O)c2ccco2)c(Cl)c1 |  | inactive: 68.4% |
| O=C(CCCC(=O)c1ccc(F)cc1)c1ccc(F)cc1 |  | inactive: 169% |
| CC(C)c1ccc(NC(=O)CCNC(=O)Cn2ccc3ccccc3c2=O)cc1 |  | inactive: 36.5% |
| O=C(Cc1c[nH]c2ccccc12)OCCOC(=O)Cc1c[nH]c2ccccc12 | active: 5.22 µM |  |

| Compound | Potency | activity change, negative = inhibition |
| --- | --- | --- |
| Cc1cccc(C)c1NC(=O)C(C)N1CCCCC1 (stereo unspecified) |  | inactive: 45% |
| CCN(CC)C(=O)c1cc(-c2ccccc2OC)on1 |  | inactive: -35.9% |
| CCCCCCNS(=O)(=O)c1ccc(NC(=O)C2CCCO2)cc1 (stereo unspecified) | inconclusive: 1.65 µM [inhibitor, full curve, poor fit] |  |
| O=C(CCn1nnc2ccccc21)Nc1nnc(COc2ccc(F)cc2)s1 | active: 9.28 µM |  |
| COc1ccc(S(=O)(=O)N2CCc3ccccc32)cc1NC(C)=O | inconclusive: 4.15 µM [inhibitor, partial curve, poor fit] |  |
| CCOC(=O)/C(C#N)=C(C)/C=C1\Sc2ccccc2N1CC |  | inactive: -9.75% |
| CC(C)(C)N(Cc1ccccc1)C(=O)COc1cccnc1[N+](=O)[O-] |  | inactive: -50.7% |
| CC(C)c1[nH]nc2c1C1(CCN(Cc3ccccc3)CC1)C(C#N)=C(N)O2 | inconclusive: 10.4 µM [inhibitor, single point] |  |
| COc1cc2nc(-c3ccccc3C)oc(=O)c2cc1OC | inconclusive: 18.5 µM [inhibitor, single point] |  |
| CCOC(=O)c1cc(C(=O)Nc2ccc(C)c(F)c2)nn1C |  | inactive: 248% |
| Cc1nn(C)c(C)c1NS(=O)(=O)c1ccc(N2CCCC2=O)cc1 | inconclusive: 18.5 µM [inhibitor, single point] |  |
| CCOc1c(OC)ccc2c3c(c(=O)oc12)CCCC3 |  | inactive: -26.6% |
| CC(C)CCNC(=O)NC(=O)CSc1nnc(COc2ccccc2Cl)o1 | inconclusive: 3.7 µM [inhibitor, single point] |  |
| CC(C(=O)NCC(=O)Nc1ccc(F)c(F)c1F)N1CCN(c2ccc(O)cc2)CC1 (stereo unspecified) | inconclusive: 11.7 µM [inhibitor, single point] |  |
| Cc1c(C(O)CN2CCN(Cc3ccc4c(c3)OCO4)CC2)c2ccccc2n1C (stereo unspecified) | inconclusive: 7.38 µM [inhibitor, partial curve, poor fit] |  |
| O=C(OCc1nnc(-c2ccc([N+](=O)[O-])cc2)o1)C1CCN(C(=O)c2ccc(F)cc2)CC1 | inconclusive: 18.5 µM [inhibitor, single point] |  |
| CN(C)/C=C1\N=C(c2ccc3c(c2)OCO3)OC1=O | inconclusive: 4.65 µM [inhibitor, partial curve, poor fit] |  |
| CSc1ccc(S(=O)(=O)NCC(=O)OCC(=O)NCC2CCCO2)cc1[N+](=O)[O-] (stereo unspecified) |  | inactive: 18.4% |
| CC(=O)c1cccc(N(C(=O)c2cnccn2)C(C(=O)NCc2ccccc2)c2ccco2)c1 (stereo unspecified) |  | inactive: -23.5% |
| COc1cc2c(cc1OC)CN(C(=O)c1nn(Cc3ccccc3)c(=O)c3ccccc13)CC2 | inconclusive: 18.5 µM [inhibitor, single point] |  |
| O=C(OCC(=O)N1c2ccccc2Sc2ccccc21)c1cccnc1 | inconclusive: 13.1 µM [inhibitor, partial curve, poor fit] |  |
| CC(=O)Nc1ccc(C(=O)N2CCN(S(=O)(=O)c3ccc4c(c3)OCCCO4)CC2)cc1 | inconclusive: 11.7 µM [inhibitor, single point] |  |
| Cc1ccc(OCC(=O)Nc2cccc(S(=O)(=O)N3CCCCC3)c2)c([N+](=O)[O-])n1 | inconclusive: 13.1 µM [inhibitor, partial curve, poor fit] |  |

Ordered by length of the SMILES (rising): 3 of the compounds above

| Compound | Potency | activity change, negative = inhibition |
| --- | --- | --- |
| CCNC(=S)NNC(=O)c1cc(-c2cccnc2)nc2ccccc12 |  | inactive: 21.4% |
| CC(C)CCNC(=O)NC(=O)CSc1nnc(COc2ccccc2Cl)o1 | inconclusive: 3.7 µM [inhibitor, single point] |  |
| O=C(OCc1nnc(-c2ccc([N+](=O)[O-])cc2)o1)C1CCN(C(=O)c2ccc(F)cc2)CC1 | inconclusive: 18.5 µM [inhibitor, single point] |  |
